# Laboratory results reported in the supplement of paper PMC6411743.
# Amino acid sequences for entries named in this document (tags omitted). A change or cut given only in a name is not applied to a line headed by its entry.
# UniProt Q8NHM5: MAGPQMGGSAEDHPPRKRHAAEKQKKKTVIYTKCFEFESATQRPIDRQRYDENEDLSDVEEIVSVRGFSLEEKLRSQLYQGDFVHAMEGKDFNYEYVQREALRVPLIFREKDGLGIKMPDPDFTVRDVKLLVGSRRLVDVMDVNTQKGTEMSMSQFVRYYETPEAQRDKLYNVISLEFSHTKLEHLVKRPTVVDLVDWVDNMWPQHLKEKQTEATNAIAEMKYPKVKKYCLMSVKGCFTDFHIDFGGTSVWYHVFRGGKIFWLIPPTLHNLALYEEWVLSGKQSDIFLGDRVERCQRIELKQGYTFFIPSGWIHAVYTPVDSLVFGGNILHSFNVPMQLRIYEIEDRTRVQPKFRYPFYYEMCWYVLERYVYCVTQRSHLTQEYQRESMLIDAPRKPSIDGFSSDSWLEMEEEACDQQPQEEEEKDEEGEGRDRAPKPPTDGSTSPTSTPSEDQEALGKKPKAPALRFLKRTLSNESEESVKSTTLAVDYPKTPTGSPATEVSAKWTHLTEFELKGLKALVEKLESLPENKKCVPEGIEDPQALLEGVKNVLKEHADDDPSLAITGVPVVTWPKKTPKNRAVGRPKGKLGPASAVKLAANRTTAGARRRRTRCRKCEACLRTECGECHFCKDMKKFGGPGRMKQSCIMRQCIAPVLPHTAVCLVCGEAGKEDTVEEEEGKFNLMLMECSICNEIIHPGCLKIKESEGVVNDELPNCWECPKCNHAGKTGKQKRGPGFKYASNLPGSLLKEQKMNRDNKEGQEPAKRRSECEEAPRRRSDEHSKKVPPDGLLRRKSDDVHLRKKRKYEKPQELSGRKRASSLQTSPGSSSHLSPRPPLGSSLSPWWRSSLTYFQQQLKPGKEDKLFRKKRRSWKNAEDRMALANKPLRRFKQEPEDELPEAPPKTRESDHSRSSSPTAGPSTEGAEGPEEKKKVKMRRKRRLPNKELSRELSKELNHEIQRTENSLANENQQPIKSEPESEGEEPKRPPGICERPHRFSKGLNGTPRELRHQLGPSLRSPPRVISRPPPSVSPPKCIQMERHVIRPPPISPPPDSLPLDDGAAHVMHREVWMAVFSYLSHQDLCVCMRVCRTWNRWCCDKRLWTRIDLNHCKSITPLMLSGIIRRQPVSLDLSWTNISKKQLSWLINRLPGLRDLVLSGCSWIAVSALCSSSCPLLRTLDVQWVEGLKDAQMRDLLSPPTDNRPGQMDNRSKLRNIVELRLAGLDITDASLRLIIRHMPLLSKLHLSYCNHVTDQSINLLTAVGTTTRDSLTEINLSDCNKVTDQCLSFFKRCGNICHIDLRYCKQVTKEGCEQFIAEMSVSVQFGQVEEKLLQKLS
# UniProt Q8WVQ1: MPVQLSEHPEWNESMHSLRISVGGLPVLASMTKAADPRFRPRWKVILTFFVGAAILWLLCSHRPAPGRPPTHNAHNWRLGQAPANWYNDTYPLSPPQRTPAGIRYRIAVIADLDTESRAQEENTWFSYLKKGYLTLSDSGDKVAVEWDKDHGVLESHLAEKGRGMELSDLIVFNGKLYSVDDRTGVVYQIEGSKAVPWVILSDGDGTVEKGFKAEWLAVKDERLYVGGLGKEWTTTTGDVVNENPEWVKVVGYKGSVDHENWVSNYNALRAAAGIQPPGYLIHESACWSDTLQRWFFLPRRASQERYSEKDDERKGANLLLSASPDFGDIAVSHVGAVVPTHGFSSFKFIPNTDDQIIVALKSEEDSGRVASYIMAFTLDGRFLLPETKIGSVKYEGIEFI
# UniProt Q8WVM8, whole entry, looked up: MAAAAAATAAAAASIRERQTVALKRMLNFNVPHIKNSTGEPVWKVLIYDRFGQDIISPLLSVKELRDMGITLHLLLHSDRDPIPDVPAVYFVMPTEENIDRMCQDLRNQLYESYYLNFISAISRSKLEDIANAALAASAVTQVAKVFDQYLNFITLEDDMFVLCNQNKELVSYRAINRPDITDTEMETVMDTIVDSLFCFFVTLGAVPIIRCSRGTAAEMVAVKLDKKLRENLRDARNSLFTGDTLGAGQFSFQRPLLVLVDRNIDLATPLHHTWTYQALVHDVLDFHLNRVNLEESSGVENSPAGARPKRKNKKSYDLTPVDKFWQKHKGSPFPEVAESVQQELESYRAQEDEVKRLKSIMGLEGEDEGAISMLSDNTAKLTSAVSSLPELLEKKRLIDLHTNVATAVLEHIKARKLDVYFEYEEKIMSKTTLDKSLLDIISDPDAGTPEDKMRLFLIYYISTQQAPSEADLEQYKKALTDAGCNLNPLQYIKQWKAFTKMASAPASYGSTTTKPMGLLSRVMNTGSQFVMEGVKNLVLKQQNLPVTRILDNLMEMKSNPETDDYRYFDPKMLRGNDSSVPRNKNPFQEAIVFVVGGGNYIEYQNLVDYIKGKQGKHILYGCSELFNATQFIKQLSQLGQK
# UniProt Q92820: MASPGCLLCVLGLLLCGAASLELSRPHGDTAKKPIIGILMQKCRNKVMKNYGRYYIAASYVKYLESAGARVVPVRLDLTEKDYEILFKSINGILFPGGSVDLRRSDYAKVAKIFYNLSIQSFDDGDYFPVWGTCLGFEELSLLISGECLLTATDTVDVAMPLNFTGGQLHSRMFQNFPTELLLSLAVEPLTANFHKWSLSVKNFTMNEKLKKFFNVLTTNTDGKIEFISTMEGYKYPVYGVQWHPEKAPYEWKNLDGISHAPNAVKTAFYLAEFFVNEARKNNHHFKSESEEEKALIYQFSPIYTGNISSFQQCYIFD
# UniProt Q8NBX0: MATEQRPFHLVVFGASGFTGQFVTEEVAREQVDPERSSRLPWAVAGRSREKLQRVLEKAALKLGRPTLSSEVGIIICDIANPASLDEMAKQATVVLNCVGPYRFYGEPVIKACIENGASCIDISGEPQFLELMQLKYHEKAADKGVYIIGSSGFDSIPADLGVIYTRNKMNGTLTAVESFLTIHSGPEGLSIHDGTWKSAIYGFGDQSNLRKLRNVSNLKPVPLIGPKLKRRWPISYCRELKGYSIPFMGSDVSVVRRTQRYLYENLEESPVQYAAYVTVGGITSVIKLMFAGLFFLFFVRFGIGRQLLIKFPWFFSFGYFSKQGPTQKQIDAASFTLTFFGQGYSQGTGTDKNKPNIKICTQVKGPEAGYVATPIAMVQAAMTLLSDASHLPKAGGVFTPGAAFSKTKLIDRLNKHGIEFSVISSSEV
# UniProt Q8NFZ8: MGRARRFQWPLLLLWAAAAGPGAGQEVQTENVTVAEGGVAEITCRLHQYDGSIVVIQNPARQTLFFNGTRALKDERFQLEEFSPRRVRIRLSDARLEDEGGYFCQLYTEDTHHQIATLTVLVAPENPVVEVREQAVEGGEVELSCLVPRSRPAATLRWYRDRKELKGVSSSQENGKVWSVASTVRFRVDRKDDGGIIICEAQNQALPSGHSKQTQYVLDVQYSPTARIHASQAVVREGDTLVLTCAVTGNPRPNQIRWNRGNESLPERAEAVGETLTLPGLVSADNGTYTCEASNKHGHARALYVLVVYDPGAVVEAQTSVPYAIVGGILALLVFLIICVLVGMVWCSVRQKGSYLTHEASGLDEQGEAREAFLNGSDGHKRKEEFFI
# UniProt Q8WXG6, whole entry, looked up: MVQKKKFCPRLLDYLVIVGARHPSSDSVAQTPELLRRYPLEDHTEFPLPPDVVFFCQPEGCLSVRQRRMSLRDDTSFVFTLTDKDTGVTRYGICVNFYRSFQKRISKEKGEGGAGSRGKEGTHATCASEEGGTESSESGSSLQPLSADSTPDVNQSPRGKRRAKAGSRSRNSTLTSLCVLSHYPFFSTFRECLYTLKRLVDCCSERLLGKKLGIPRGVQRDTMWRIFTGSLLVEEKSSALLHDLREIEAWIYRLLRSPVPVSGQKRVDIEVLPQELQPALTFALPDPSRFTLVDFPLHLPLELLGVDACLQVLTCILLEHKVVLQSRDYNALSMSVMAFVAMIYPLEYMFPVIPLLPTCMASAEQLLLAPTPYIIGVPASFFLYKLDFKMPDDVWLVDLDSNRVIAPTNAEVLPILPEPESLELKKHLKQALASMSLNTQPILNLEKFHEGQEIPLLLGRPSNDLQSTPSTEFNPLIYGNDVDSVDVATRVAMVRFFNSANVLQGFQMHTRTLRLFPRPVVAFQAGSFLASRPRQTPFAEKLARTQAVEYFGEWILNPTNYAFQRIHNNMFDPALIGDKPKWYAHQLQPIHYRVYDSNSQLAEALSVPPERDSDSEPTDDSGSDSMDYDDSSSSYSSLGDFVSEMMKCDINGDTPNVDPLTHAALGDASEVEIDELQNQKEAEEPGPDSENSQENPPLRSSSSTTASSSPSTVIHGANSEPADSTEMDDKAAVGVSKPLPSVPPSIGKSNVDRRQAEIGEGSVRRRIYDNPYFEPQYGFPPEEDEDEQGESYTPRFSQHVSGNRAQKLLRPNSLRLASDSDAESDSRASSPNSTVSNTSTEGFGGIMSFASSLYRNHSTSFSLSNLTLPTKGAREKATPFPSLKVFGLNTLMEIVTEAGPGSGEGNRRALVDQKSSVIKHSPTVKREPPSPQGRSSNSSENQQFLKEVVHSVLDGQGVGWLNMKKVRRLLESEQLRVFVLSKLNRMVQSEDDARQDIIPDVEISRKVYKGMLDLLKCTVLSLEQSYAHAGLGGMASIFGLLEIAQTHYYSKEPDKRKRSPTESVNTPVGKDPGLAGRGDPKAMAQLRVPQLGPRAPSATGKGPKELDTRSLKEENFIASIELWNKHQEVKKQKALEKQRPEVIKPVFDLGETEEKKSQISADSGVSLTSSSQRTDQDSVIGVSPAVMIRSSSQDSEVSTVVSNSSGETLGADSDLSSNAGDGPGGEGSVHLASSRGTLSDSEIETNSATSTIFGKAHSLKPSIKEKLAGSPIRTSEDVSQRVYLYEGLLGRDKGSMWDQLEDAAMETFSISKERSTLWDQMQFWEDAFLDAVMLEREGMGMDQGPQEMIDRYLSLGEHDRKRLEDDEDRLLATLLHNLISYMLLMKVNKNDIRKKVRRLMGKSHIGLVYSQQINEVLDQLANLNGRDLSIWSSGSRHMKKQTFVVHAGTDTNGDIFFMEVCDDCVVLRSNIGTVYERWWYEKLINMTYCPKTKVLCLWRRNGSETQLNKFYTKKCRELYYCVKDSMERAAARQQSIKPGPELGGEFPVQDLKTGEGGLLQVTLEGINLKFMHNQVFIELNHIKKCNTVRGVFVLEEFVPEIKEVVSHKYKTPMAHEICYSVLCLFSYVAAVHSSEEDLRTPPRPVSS
# UniProt Q8WU90: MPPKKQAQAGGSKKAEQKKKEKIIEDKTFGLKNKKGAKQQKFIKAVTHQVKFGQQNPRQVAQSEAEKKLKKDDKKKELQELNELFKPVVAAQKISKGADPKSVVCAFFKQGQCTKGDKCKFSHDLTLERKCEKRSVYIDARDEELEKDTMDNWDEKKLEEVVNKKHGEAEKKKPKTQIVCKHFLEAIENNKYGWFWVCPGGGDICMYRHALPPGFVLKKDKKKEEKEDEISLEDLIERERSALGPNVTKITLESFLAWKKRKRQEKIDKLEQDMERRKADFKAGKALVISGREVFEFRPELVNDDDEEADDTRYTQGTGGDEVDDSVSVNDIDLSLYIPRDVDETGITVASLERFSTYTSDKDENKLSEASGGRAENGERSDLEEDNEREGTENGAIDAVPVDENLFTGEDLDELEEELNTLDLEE
# UniProt Q8TDN6: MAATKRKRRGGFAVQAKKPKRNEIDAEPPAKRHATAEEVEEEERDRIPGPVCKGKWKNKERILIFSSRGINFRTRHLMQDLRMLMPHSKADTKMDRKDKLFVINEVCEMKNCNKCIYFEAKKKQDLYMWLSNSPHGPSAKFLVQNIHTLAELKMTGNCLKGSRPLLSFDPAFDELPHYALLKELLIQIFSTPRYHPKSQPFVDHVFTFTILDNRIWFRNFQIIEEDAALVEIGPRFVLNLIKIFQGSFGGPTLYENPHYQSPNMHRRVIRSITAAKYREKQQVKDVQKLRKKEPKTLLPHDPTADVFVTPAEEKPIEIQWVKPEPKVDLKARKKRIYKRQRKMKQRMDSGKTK
# UniProt Q8WVX9: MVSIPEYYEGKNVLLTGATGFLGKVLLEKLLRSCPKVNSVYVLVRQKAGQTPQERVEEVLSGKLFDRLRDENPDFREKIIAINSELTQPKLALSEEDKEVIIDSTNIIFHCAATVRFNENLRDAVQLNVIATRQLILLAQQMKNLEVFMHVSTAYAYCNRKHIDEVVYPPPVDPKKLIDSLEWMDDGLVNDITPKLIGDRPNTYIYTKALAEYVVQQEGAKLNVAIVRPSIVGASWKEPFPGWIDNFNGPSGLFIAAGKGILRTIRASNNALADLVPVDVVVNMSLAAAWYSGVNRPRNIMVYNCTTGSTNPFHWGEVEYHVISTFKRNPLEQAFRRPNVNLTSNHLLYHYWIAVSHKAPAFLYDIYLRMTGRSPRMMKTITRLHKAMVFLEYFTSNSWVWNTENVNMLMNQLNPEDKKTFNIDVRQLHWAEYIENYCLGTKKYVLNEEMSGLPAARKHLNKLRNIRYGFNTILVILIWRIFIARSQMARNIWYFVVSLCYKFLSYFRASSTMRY
# ± gives the standard deviation of the averaged measurements. This is a selection; strong and weak results do not stand in their true shares.
# Compound: Nc1ncnc2c1ncn2[C@@H]1O[C@H](COP(=O)(O)OP(=O)(O)NP(=O)(O)O)[C@@H](O)[C@H]1O [adenylyl imidodiphosphate]
# Assay: NP40-soluble protein abundance relative to vehicle (solubility fold change) (ratio); higher = more soluble protein in presence of AMP-PNP
# Summary of the method: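 Jurkat crude lysate (Dounce-homogenised) was treated with eight concentrations from 0.1 to 10 mM for 10 min at room temperature, then 3 min at 37 °C. It was solubilised with 0.8% NP40 and benzonase (60 min, 4 °C) and ultracentrifuged, and the supernatant was TMT-labelled for LC-MS/MS. Intensities were vsn-normalised, and the value is the fold change against the NP40-processed vehicle per replicate, from three independent experiments.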
Target,NP40-soluble protein abundance (concentration: 1mM),NP40-soluble protein abundance (concentration: 2mM),NP40-soluble protein abundance (concentration: 4mM),NP40-soluble protein abundance (concentration: 6mM),NP40-soluble protein abundance (concentration: 8mM),NP40-soluble protein abundance (concentration: 10mM)
UniProt Q8TBZ6,1.02 ± 0.015,1.03 ± 0.085,1 ± 0.044,0.996 ± 0.038,0.984 ± 0.018,1.03 ± 0.036
UniProt Q8WWY3 and related entries,0.982 ± 0.025,1.01 ± 0.051,0.998 ± 0.02,1.089 ± 0.008,1.07 ± 0.011,1.13 ± 0.057
AKAP1 (UniProt Q92667),1.02 ± 0.025,1.07 ± 0.074,1.02 ± 0.023,0.993 ± 0.023,0.962 ± 0.012,1 ± 0.017
THOC2 (UniProt Q8NI27),1.36 ± 0.16,1.46 ± 0.2,1.63 ± 0.29,1.87 ± 0.53,2.02 ± 0.6,2.15 ± 0.77
NUP210 (UniProt Q8TEM1),0.992 ± 0.025,0.952 ± 0.025,0.975 ± 0.021,0.972 ± 0.037,1.01 ± 0.029,0.986 ± 0.044
UniProt Q8NHM5 and related entries,1.02 ± 0.024,1.034 ± 0.0075,1.04 ± 0.054,1.04 ± 0.04,1.01 ± 0.021,1.04 ± 0.034
UniProt Q8NG31 and related entries,1.02 ± 0.041,1 ± 0.028,0.999 ± 0.048,0.926 ± 0.052,0.902 ± 0.035,0.905 ± 0.064
UniProt Q8WVQ1 and related entries,0.977 ± 0.02,0.965 ± 0.017,0.9898 ± 0.0082,0.973 ± 0.012,0.96 ± 0.024,0.977 ± 0.022
SCFD1 (UniProt Q8WVM8),0.988 ± 0.021,0.99 ± 0.023,0.984 ± 0.013,0.967 ± 0.038,0.9484 ± 0.0082,0.96 ± 0.039
ZNF592 (UniProt Q92610),0.996 ± 0.063,1.047 ± 0.008,1.03 ± 0.077,1.04 ± 0.081,1.08 ± 0.073,1.13 ± 0.11
GGH (UniProt Q92820),0.985 ± 0.046,0.993 ± 0.083,1.02 ± 0.07,1.05 ± 0.062,1.08 ± 0.074,1.05 ± 0.09
PLA2G15 (UniProt Q8NCC3),0.991 ± 0.013,0.975 ± 0.013,1.02 ± 0.03,0.986 ± 0.029,0.9922 ± 0.0084,0.979 ± 0.021
MRPS31 (UniProt Q92665),1.01 ± 0.091,1.02 ± 0.047,1.03 ± 0.11,1 ± 0.1,1.02 ± 0.12,1.03 ± 0.16
SCCPDH (UniProt Q8NBX0),0.967 ± 0.03,0.887 ± 0.12,0.936 ± 0.04,0.952 ± 0.018,0.955 ± 0.024,0.9433 ± 0.0093
UniProt Q8WXA9-2,0.989 ± 0.024,1.02 ± 0.04,1.02 ± 0.043,1.07 ± 0.022,1.09 ± 0.039,1.18 ± 0.055
CADM4 (UniProt Q8NFZ8),0.99 ± 0.018,1.02 ± 0.028,1 ± 0.02,1.01 ± 0.011,0.9952 ± 0.0084,0.993 ± 0.011
NUBPL (UniProt Q8TB37),1 ± 0.045,1.01 ± 0.057,1.02 ± 0.05,1.06 ± 0.092,1.03 ± 0.092,1.05 ± 0.076

Target,NP40-soluble protein abundance (concentration: 1mM),NP40-soluble protein abundance (concentration: 2mM),NP40-soluble protein abundance (concentration: 4mM),NP40-soluble protein abundance (concentration: 6mM),NP40-soluble protein abundance (concentration: 8mM),NP40-soluble protein abundance (concentration: 10mM)
UniProt Q8WU10 and related entries,0.99 ± 0.032,0.967 ± 0.064,1.01 ± 0.032,0.988 ± 0.017,0.991 ± 0.055,1 ± 0.022
UniProt Q8WXG6-4|Q8WXG6-5|Q8WXG6-6|Q8WXG6-7|Q8WXG6-8|Q8WXG6,1.04 ± 0.018,1.05 ± 0.034,1.05 ± 0.033,0.988 ± 0.011,0.997 ± 0.036,1 ± 0.023
UniProt Q8TCA0 and related entries,0.97 ± 0.016,1.01 ± 0.018,0.984 ± 0.02,0.971 ± 0.048,0.942 ± 0.015,0.978 ± 0.048
UniProt Q8NHY2 and related entries,0.9844 ± 0.0098,0.9857 ± 0.0016,0.996 ± 0.016,0.977 ± 0.038,0.998 ± 0.031,0.987 ± 0.021
UniProt Q8NEZ4 and related entries,0.938 ± 0.056,0.898 ± 0.051,0.937 ± 0.052,0.93 ± 0.076,0.961 ± 0.045,0.886 ± 0.092
ARPC1A (UniProt Q92747),0.957 ± 0.025,0.886 ± 0.099,0.968 ± 0.034,0.948 ± 0.02,0.978 ± 0.051,0.899 ± 0.035
ZC3H15 (UniProt Q8WU90),1.04 ± 0.011,1.09 ± 0.1,1.06 ± 0.036,1.12 ± 0.052,1.11 ± 0.051,1.15 ± 0.054
UniProt Q8TDN6,1.045 ± 0.0023,1.044 ± 0.0043,1.1 ± 0.019,1.11 ± 0.026,1.16 ± 0.021,1.23 ± 0.049
TOPBP1 (UniProt Q92547),0.9859 ± 0.0039,1 ± 0.031,1.05 ± 0.033,1.01 ± 0.013,1.0187 ± 0.00086,1.03 ± 0.045
FAR1 (UniProt Q8WVX9),1.03 ± 0.027,0.961 ± 0.036,1.005 ± 0.006,0.949 ± 0.023,1.01 ± 0.031,0.97 ± 0.0097
TMEM263 (UniProt Q8WUH6),0.972 ± 0.026,1.01 ± 0.098,0.999 ± 0.059,1.07 ± 0.077,1.06 ± 0.056,1.09 ± 0.018
UniProt Q8NFH5 and related entries,1.05 ± 0.026,1.06 ± 0.058,1.08 ± 0.053,1.09 ± 0.035,1.1 ± 0.054,1.14 ± 0.1
NT5C (UniProt Q8TCD5),0.968 ± 0.031,0.93 ± 0.015,0.932 ± 0.021,0.977 ± 0.093,1.04 ± 0.09,0.986 ± 0.049
UniProt Q8TEH3 and related entries,1.03 ± 0.02,1.05 ± 0.12,1.04 ± 0.052,1.08 ± 0.046,1.04 ± 0.038,1.05 ± 0.063
UniProt Q8NEZ5 and related entries,0.99 ± 0.02,0.901 ± 0.082,0.99 ± 0.023,1 ± 0.04,1.06 ± 0.025,1.01 ± 0.025
UniProt Q92576 and related entries,1.046 ± 0.0099,1.09 ± 0.048,1.08 ± 0.008,1.08 ± 0.07,1.09 ± 0.04,1.11 ± 0.046
JARID2 (UniProt Q92833),1.03 ± 0.045,0.9985 ± 0.0084,1 ± 0.075,1.02 ± 0.016,1.01 ± 0.019,1.02 ± 0.027

# Limited to NP40-soluble protein abundance (concentration: 10mM) and NP40-soluble protein abundance (concentration: 8mM), for some of the entries so far:
Target,NP40-soluble protein abundance (concentration: 10mM),NP40-soluble protein abundance (concentration: 8mM)
UniProt Q8TEH3 and related entries,1.05 ± 0.063,1.04 ± 0.038
JARID2 (UniProt Q92833),1.02 ± 0.027,1.01 ± 0.019
